Data from PMC12274846.
Results are given in words; binding and its absence hold for the method and conditions named. In cells and extracts the contact can be indirect. Some results given as binding are weak or reduced against the parent protein; the word gives no strength.

Molecular target: early growth response 2 (Egr2) (human (endogenous in Hep3B)) (UniProt P11161)
Assay: co-IP; endogenous Egr1 or Egr2 immunoprecipitated (Universal Magnetic Co-IP kit, magnetic protein G beads, 2 h at 4 °C) from Hep3B whole-cell extracts (500 μg total protein) after 0, 2 or 8 h hypoxia (1% O2); immunoblotted for HIF-1α or HIF-2α

binding | Substance
binds | hypoxia inducible factor 2 alpha (HIF-2α) (from UniProt Q99814 1-870)
no binding | hypoxia inducible factor 1 alpha (HIF-1α) (from UniProt Q16665 1-826)
